Reference: patent US5358712A, “Radiopharmaceutical agents for the detection of Alzheimer's disease” (Regents of the University of Minnesota, priority 1993, dated 1994)
At least one structure is not confirmed: it was looked up by name or label, or the drawing left a doubt.

System: vesamicol receptor
Assay: Blocking experiments: inhibition of radiotracer accumulation in the rat by coadministered compound
Assay type: in vivo, rat (male Wistar)
Procedure: *Animals in group 1 received an iv injection of (+)4-[^125 l]HIPP
only. For groups 2, 3, and 4, the radiotracer was coadministered with the
hydrochlorides of (+)7 (0.53 mg/kg), (-)7 (0.53 mg/kg) and vesamicol (0.3
Four groups of male Wistar rats (n=3) were used in these experiments. All animals received an iv dose of 8-10 μCi of the radiotracer in 0.1 ml of 50% aq. ethanol. Additionally, in groups 2, 3 and 4, the radiotracer was coadministered with (+)-HBrPP.HCl(1.3 μmol/kg), (-)-HBrPP.HCl(1.3 μmol/kg) and (dl)-vesamicol hydrochloride (1.1 μmol/kg), respectively. At 60 min. post-injection, blood was collected by cardiac puncture and the animals sacrificed as described above. The data was analyzed as outlined above.
NOTE: The dose of radiotracer injected was 5-7 mCi. Group I was the
control, injected with the radiotracer only. Group II included the
simultaneous injection of "cold"(dl)3-HIPP (HCl) (0.53 mg/kg). Group III
included the simultaneous injection of (dl) vesamicol (HCl) (0.31 mg/kg).
All rats were sacrificed at one hour postinjection.
NOTE: Group I was the control, injected with the radiotracer only. Group
II included the simultaneous injection of "cold"(dl)3-HIPP (HCl) (0.53
mg/kg). Group III included the simultaneous injection of (dl) vesamicol
hydrochloride (0.31 mg/kg). The dose of radiotracer was 8-9 μCi. All
rats were sacrificed at one hour postinjection. […]

Row | effect of coadministered vesamicol on accumulation (in words) | SMILES
1 | decreased | OC(CN1CCC(c2ccccc2)CC1)c1ccc([125I])cc1 (single isomer, unassigned; (+)) [(+)-[^125 l]13] [1-(4-Iodophenyl)-2-(4-phenylpiperidinyl)ethanol]
2 | decreased | OC(CN1CCC(c2ccccc2)CC1)c1ccc([125I])cc1 (single isomer, unassigned; (-)) [(-)-[^125 l]13] [1-(4-Iodophenyl)-2-(4-phenylpiperidinyl)ethanol]
